Publication PMC6158211
No constants are given. Whether binding was seen depends on the method and setting. Binding seen in cells or lysates may run through a third protein. A yes stands for co-enrichment or nearness to the bait. Other partners may have been found. Tags and fused reporters may be left off the sequences shown.

T1: 3xFlag-UBL3 (wild-type ubiquitin-like 3 / membrane-anchored Ub-fold protein) (UniProt O95164)
T1 sequence: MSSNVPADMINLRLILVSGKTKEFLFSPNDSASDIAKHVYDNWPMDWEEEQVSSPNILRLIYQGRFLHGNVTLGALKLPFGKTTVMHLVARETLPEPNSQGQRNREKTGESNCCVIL


Biological target: T1, 3xFlag-UBL3 (wild-type ubiquitin-like 3 / membrane-anchored Ub-fold protein)
Experiment: affinity purification with mass spectrometry; 3xFlag-UBL3, 3xFlag-UBL3C113/114A or 3xFlag empty vector expressed in MDA-MB-231 cells; 1% Triton buffer lysate, anti-Flag M2 affinity gel 16 h at 4 °C, on-bead digestion, LC-MS/MS with label-free quantification, triplicate pull-downs

Binder	binding
TGFBR1 (receptor, UniProt P36897 34-503) LQCFCHLCTKDNFTCVTDGLCFVSVTETTDKVIHNSMCIAEIDLIPRDRPFVCAPSSKTGSVTTTYCCNQDHCNKIELPTTVKSSPGLGPVELAAVIAGPVCFVCISLMLMVYICHNRTVIHHRVPNEEDPSLDRPFISEGTTLKDLIYDMTTSGSGSGLPLLVQRTIARTIVLQESIGKGRFGEVWRGKWRGEEVAVKIFSSREERSWFREAEIYQTVMLRHENILGFIAADNKDNGTWTQLWLVSDYHEHGSLFDYLNRYTVTVEGMIKLALSTASGLAHLHMEIVGTQGKPAIAHRDLKSKNILVKKNGTCCIADLGLAVRHDSATDTIDIAPNHRVGTKRYMAPEVLDDSINMKHFESFKRADIYAMGLVFWEIARRCSIGGIHEDYQLPYYDLVPSDPSVEEMRKVVCEQKLRPNIPNRWQSCEALRVMAKIMRECWYANGAARLTALRIKKTLSQLSQQEGIKM	binds
RB1 (protein, UniProt P06400 1-928) MPPKTPRKTAATAAAAAAEPPAPPPPPPPEEDPEQDSGPEDLPLVRLEFEETEEPDFTALCQKLKIPDHVRERAWLTWEKVSSVDGVLGGYIQKKKELWGICIFIAAVDLDEMSFTFTELQKNIEISVHKFFNLLKEIDTSTKVDNAMSRLLKKYDVLFALFSKLERTCELIYLTQPSSSISTEINSALVLKVSWITFLLAKGEVLQMEDDLVISFQLMLCVLDYFIKLSPPMLLKEPYKTAVIPINGSPRTPRRGQNRSARIAKQLENDTRIIEVLCKEHECNIDEVKNVYFKNFIPFMNSLGLVTSNGLPEVENLSKRYEEIYLKNKDLDARLFLDHDKTLQTDSIDSFETQRTPRKSNLDEEVNVIPPHTPVRTVMNTIQQLMMILNSASDQPSENLISYFNNCTVNPKESILKRVKDIGYIFKEKFAKAVGQGCVEIGSQRYKLGVRLYYRVMESMLKSEEERLSIQNFSKLLNDNIFHMSLLACALEVVMATYSRSTSQNLDSGTDLSFPWILNVLNLKAFDFYKVIESFIKAEGNLTREMIKHLERCEHRIMESLAWLSDSPLFDLIKQSKDREGPTDHLESACPLNLPLQNNHTAADMYLSPVRSPKKKGSTTRVNSTANAETQATSAFQTQKPLKSTSLSLFYKKVYRLAYLRLNTLCERLLSEHPELEHIIWTLFQHTLQNEYELMRDRHLDQIMMCSMYGICKVKNIDLKFKIIVTAYKDLPHAVQETFKRVLIKEEEYDSIIVFYNSVFMQRLKTNILQYASTRPPTLSPIPHIPRSPYKFPSSPLRIPGGNIYISPLKSPYKISEGLPTPTKMTPRSRILVSIGESFGTSEKFQKINQMVCNSDRVLKRSAEGSNPPKPLKKLRFDIEGSDEADGSKHLPGESKFQQKLAEMTSTRTRMQKQKMNDSMDTSNKEEK	binds
ITGA6 (protein, UniProt P23229 24-1130) FNLDTREDNVIRKYGDPGSLFGFSLAMHWQLQPEDKRLLLVGAPRAEALPLQRANRTGGLYSCDITARGPCTRIEFDNDADPTSESKEDQWMGVTVQSQGPGGKVVTCAHRYEKRQHVNTKQESRDIFGRCYVLSQNLRIEDDMDGGDWSFCDGRLRGHEKFGSCQQGVAATFTKDFHYIVFGAPGTYNWKGIVRVEQKNNTFFDMNIFEDGPYEVGGETEHDESLVPVPANSYLGLLFLTSVSYTDPDQFVYKTRPPREQPDTFPDVMMNSYLGFSLDSGKGIVSKDEITFVSGAPRANHSGAVVLLKRDMKSAHLLPEHIFDGEGLASSFGYDVAVVDLNKDGWQDIVIGAPQYFDRDGEVGGAVYVYMNQQGRWNNVKPIRLNGTKDSMFGIAVKNIGDINQDGYPDIAVGAPYDDLGKVFIYHGSANGINTKPTQVLKGISPYFGYSIAGNMDLDRNSYPDVAVGSLSDSVTIFRSRPVINIQKTITVTPNRIDLRQKTACGAPSGICLQVKSCFEYTANPAGYNPSISIVGTLEAEKERRKSGLSSRVQFRNQGSEPKYTQELTLKRQKQKVCMEETLWLQDNIRDKLRPIPITASVEIQEPSSRRRVNSLPEVLPILNSDEPKTAHIDVHFLKEGCGDDNVCNSNLKLEYKFCTREGNQDKFSYLPIQKGVPELVLKDQKDIALEITVTNSPSNPRNPTKDGDDAHEAKLIATFPDTLTYSAYRELRAFPEKQLSCVANQNGSQADCELGNPFKRNSNVTFYLVLSTTEVTFDTPDLDINLKLETTSNQDNLAPITAKAKVVIELLLSVSGVAKPSQVYFGGTVVGEQAMKSEDEVGSLIEYEFRVINLGKPLTNLGTATLNIQWPKEISNGKWLLYLVKVESKGLEKVTCEPQKEINSLNLTESHNSRKKREITEKQIDDNRKFSLFAERKYQTLNCSVNVNCVNIRCPLRGLDSKASLILRSRLWNSTFLEEYSKLNYLDILMRAFIDVTAAAENIRLPNAGTQVRVTVFPSKTVAQYSGVPWWIILVAILAGILMLALLVFILWKCGFFKRSRYDDSVPRYHAVRIRKEEREIKDEKYIDNLEKKQWITKWNENESYS	binds
ATXN10 (protein, UniProt Q9UBB4 1-475) MAAPRPPPARLSGVMVPAPIQDLEALRALTALFKEQRNRETAPRTIFQRVLDILKKSSHAVELACRDPSQVENLASSLQLITECFRCLRNACIECSVNQNSIRNLDTIGVAVDLILLFRELRVEQESLLTAFRCGLQFLGNIASRNEDSQSIVWVHAFPELFLSCLNHPDKKIVAYSSMILFTSLNHERMKELEENLNIAIDVIDAYQKHPESEWPFLIITDLFLKSPELVQAMFPKLNNQERVTLLDLMIAKITSDEPLTKDDIPVFLRHAELIASTFVDQCKTVLKLASEEPPDDEEALATIRLLDVLCEMTVNTELLGYLQVFPGLLERVIDLLRVIHVAGKETTNIFSNCGCVRAEGDISNVANGFKSHLIRLIGNLCYKNKDNQDKVNELDGIPLILDNCNISDSNPFLTQWVIYAIRNLTEDNSQNQDLIAKMEEQGLADASLLKKVGFEVEKKGEKLILKSTRDTPKP	binds
